± gives the standard deviation of the averaged measurements. This is one part of the list.

Amino acid sequences for entries named in this document (tags omitted). A change or cut given only in a name is not applied to a line headed by its entry.
UniProt P61129: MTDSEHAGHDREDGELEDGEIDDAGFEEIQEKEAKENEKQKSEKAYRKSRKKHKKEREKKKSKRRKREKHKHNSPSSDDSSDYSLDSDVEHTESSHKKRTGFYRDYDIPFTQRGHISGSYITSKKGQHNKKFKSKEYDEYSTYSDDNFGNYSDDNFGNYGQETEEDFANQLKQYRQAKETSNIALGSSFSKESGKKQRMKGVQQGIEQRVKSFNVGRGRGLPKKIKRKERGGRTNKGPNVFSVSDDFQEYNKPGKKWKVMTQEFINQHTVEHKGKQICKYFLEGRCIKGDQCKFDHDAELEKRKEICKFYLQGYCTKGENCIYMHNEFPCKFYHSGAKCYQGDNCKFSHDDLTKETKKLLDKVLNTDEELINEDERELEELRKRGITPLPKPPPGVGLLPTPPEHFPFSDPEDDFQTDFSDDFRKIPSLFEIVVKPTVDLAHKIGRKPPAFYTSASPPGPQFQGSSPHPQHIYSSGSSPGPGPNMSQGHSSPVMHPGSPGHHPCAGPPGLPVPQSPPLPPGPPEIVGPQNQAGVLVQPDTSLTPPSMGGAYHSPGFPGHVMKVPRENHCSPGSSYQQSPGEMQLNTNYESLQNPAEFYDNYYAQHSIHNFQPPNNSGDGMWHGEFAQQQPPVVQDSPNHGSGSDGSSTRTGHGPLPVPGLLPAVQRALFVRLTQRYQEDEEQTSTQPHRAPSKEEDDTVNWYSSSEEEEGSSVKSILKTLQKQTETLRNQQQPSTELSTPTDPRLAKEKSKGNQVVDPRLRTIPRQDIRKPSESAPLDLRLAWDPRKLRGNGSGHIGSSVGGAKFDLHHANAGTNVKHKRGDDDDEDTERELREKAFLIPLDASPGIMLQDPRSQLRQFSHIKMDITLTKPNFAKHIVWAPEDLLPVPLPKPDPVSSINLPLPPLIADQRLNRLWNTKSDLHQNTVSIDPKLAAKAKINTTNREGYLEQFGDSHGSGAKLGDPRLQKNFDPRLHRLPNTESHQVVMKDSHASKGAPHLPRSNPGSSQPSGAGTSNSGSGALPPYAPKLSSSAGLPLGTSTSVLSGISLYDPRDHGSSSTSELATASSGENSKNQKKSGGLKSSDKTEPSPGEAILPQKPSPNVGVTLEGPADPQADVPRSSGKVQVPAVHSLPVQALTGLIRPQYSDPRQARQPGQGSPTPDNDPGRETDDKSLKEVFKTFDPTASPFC
UniProt P56381: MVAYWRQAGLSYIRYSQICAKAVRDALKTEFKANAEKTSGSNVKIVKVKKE
UniProt P60604: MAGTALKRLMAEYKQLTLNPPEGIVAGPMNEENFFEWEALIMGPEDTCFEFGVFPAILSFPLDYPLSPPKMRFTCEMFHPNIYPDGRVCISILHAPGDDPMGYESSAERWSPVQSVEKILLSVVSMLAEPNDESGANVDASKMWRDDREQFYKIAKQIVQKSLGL
UniProt P67775, whole entry: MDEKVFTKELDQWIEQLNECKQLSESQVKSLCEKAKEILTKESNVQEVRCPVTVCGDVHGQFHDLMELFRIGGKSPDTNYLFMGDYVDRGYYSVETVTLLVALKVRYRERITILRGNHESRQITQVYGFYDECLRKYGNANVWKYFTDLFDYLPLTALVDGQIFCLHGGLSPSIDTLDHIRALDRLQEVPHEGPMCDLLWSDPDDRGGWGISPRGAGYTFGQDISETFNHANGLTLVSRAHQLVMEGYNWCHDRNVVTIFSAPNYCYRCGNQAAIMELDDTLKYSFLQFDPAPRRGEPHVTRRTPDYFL
UniProt P63092, whole entry, looked up: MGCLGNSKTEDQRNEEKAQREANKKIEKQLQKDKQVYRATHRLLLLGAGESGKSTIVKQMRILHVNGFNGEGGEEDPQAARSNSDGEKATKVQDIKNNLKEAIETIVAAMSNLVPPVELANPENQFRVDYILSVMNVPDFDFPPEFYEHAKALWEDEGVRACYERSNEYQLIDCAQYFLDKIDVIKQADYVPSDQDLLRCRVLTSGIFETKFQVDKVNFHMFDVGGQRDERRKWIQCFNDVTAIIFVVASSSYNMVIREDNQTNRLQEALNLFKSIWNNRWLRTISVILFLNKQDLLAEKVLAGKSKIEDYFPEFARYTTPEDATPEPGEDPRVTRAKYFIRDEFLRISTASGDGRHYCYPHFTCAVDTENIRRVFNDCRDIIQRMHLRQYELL
UniProt P85037: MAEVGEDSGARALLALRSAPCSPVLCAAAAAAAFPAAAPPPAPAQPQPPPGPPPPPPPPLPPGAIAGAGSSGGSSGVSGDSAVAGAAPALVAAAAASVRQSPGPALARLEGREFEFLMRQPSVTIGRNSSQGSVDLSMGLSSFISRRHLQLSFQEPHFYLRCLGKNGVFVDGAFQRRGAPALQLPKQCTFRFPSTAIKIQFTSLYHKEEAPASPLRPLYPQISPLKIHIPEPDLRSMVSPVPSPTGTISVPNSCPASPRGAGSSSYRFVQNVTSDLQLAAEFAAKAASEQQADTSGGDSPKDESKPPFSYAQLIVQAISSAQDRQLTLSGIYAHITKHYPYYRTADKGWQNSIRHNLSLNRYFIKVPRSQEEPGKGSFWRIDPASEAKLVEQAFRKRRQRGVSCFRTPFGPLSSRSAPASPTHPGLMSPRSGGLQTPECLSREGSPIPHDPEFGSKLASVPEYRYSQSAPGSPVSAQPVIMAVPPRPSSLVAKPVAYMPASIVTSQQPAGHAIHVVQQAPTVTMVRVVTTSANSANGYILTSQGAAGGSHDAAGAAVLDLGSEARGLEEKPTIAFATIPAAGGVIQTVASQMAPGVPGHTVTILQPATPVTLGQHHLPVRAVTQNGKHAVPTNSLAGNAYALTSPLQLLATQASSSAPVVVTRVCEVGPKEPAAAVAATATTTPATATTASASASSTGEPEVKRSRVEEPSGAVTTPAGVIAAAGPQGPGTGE
UniProt P56192: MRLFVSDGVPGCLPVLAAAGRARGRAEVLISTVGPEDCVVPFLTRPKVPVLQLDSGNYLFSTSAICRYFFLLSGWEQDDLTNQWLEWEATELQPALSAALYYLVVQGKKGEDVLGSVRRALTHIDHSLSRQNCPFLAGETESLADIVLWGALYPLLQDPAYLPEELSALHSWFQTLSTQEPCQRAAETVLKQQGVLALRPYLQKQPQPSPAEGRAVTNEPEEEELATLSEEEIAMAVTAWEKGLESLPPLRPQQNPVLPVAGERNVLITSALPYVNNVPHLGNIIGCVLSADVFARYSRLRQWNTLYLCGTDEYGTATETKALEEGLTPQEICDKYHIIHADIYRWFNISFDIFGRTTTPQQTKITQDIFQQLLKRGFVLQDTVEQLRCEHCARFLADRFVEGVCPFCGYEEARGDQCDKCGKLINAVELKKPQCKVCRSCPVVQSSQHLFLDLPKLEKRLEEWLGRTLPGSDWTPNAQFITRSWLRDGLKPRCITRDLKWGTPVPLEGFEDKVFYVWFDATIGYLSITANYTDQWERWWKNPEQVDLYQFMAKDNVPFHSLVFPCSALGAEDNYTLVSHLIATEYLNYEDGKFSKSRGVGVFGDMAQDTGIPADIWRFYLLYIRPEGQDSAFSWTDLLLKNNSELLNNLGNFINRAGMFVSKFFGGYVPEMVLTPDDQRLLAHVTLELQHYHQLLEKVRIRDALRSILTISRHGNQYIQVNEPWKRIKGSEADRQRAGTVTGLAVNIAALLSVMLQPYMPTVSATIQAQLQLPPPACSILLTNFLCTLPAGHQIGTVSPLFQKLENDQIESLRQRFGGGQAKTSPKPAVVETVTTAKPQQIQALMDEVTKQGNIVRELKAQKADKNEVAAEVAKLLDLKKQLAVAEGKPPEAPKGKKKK
UniProt P98170, whole entry: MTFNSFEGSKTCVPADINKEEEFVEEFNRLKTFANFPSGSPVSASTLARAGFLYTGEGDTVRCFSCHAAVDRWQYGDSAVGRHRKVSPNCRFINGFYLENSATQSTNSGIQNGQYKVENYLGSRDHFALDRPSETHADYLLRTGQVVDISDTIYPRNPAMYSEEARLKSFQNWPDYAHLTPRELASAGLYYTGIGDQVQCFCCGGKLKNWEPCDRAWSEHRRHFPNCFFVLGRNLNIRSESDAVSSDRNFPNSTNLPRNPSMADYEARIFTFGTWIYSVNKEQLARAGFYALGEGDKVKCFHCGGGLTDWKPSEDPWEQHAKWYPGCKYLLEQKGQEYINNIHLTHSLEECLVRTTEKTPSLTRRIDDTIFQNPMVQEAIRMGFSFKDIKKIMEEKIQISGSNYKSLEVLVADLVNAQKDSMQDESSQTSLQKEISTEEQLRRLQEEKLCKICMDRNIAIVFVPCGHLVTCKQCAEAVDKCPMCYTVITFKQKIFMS
UniProt P52298: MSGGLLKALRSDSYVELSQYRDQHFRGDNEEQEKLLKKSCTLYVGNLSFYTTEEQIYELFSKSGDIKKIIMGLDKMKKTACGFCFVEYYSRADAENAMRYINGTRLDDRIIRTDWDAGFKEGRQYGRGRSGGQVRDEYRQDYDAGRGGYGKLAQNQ
UniProt P60983, whole entry: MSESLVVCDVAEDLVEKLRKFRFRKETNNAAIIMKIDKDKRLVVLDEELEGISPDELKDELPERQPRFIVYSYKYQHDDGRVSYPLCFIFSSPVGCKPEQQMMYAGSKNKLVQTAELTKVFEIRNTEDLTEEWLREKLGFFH
UniProt P62314, whole entry: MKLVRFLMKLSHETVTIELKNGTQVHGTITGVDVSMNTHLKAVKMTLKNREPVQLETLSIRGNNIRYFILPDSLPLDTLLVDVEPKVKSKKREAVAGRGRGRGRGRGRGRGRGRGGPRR
UniProt P56199, whole entry: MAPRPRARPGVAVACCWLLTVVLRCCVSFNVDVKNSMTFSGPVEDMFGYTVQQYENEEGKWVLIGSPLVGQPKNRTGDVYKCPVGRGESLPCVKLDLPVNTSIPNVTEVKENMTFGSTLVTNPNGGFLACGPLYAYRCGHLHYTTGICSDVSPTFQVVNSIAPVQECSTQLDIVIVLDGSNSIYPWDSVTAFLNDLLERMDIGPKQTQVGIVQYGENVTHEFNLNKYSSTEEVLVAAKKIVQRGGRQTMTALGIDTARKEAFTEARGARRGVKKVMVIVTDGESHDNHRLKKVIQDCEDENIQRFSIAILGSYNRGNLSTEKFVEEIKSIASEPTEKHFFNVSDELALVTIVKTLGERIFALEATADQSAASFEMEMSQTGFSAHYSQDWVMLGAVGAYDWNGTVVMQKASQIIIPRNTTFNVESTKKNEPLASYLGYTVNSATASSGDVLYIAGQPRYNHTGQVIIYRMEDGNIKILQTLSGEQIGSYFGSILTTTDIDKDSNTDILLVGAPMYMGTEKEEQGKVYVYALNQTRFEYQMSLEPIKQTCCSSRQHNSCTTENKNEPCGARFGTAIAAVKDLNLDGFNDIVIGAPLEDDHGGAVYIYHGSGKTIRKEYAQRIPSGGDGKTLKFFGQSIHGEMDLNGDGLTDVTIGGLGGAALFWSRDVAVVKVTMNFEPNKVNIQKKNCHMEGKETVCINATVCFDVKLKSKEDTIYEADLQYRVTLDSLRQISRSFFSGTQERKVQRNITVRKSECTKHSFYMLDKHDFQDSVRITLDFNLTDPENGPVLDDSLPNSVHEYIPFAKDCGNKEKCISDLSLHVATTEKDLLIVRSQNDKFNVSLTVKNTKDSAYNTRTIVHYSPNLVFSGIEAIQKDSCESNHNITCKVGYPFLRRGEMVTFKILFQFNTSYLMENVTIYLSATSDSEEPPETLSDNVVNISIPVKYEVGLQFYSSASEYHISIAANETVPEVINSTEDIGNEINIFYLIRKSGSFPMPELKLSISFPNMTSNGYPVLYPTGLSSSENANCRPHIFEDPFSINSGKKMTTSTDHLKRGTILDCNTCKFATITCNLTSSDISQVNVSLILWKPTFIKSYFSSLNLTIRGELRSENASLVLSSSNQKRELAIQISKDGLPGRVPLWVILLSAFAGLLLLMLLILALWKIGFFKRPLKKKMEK
UniProt P51572: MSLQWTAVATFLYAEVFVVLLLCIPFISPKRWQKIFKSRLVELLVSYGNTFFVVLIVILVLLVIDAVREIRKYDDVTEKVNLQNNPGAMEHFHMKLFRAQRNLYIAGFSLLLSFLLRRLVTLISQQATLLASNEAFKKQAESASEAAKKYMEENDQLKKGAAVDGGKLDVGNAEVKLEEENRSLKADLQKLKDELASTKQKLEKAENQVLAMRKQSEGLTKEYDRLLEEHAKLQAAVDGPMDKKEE
UniProt P62072: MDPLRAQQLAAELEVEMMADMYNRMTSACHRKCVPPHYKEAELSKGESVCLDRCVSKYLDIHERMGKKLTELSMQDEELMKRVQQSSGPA
UniProt P50502: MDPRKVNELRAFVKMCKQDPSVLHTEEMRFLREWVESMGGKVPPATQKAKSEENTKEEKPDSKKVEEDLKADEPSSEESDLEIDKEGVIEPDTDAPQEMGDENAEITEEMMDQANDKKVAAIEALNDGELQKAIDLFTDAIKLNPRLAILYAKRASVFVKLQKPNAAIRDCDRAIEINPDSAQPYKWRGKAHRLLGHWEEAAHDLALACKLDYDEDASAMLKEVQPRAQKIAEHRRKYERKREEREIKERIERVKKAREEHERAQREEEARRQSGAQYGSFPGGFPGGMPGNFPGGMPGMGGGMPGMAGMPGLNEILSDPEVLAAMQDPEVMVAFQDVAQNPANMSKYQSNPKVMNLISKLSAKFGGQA

Compound in the first assay: Nc1nc2c(ncn2[C@@H]2O[C@H](COP(=O)(O)OP(=O)(O)OP(=O)(O)O)[C@@H](O)[C@H]2O)c(=O)[nH]1 [guanosine triphosphate]
Nature of the assay: NP40-soluble protein abundance relative to vehicle (solubility fold change) (ratio); higher = more soluble protein in presence of GTP. The conditions noted are these: concentration: 0.1mM. In outline: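 Crude Jurkat lysate, prepared by Dounce homogenisation, was exposed to eight concentrations from 0.1 to 10 mM for 10 min at room temperature and then 3 min at 37 °C. Solubilisation used 0.8% NP40 with benzonase for 60 min at 4 °C, followed by ultracentrifugation and TMT labelling of the supernatant for LC-MS/MS. After vsn normalisation of intensities, each value is the fold change against the detergent-processed vehicle within each replicate, across three independent experiments.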
For the target UniProt P61129, the NP40-soluble protein abundance is 0.917 ± 0.046.

Take CTSC (UniProt P53634): the NP40-soluble protein abundance came out at 0.983 ± 0.0099.

UniProt P56381: the NP40-soluble protein abundance is 0.923 ± 0.072.

As for UniProt P61764 and related entries, the NP40-soluble protein abundance turned out to be 1.04 ± 0.043.

In the case of UniProt P60604, the NP40-soluble protein abundance was 1.08 ± 0.071.

With EIF5 (UniProt P55010), the NP40-soluble protein abundance came to 0.948 ± 0.053.

Take MRPS9 (UniProt P82933): the NP40-soluble protein abundance worked out at 1.1 ± 0.086.

For the target PPP2CA (UniProt P67775), the NP40-soluble protein abundance is 0.989 ± 0.017.

Turning to MRPS35 (UniProt P82673), the NP40-soluble protein abundance worked out at 1.01 ± 0.18.

As for UniProt P50995 and related entries, the NP40-soluble protein abundance was determined as 0.929 ± 0.08.

As to UniProt P54920 and related entries, the NP40-soluble protein abundance was found to be 0.8901 ± 0.0051.

Take UniProt P61009: the NP40-soluble protein abundance worked out at 0.969 ± 0.031.

With UniProt P60953, the NP40-soluble protein abundance worked out at 0.87 ± 0.13.

With UniProt P62495, the NP40-soluble protein abundance was 0.975 ± 0.033.

Regarding “UniProt P63092-2|P63092-3|P63092 and related entries”, the NP40-soluble protein abundance was 0.973 ± 0.013.

For FOXK1 (UniProt P85037), the NP40-soluble protein abundance turned out to be 0.995 ± 0.033.

As for MARS (UniProt P56192), the NP40-soluble protein abundance was 1.07 ± 0.059.

Turning to XIAP (UniProt P98170), the NP40-soluble protein abundance came out at 1.05 ± 0.19.

On to UniProt P62995 and related entries, for which the NP40-soluble protein abundance amounted to 1.08 ± 0.077.

As for UniProt P55884 and related entries, the NP40-soluble protein abundance was found to be 1.02 ± 0.042.

For the target UniProt P84095, the NP40-soluble protein abundance worked out at 0.968 ± 0.043.

Consider NCBP2 (UniProt P52298), for which the NP40-soluble protein abundance stood at 0.991 ± 0.029.

For UniProt P54727 and related entries, the NP40-soluble protein abundance came to 0.887 ± 0.057.

For the target UniProt P60983 and related entries, the NP40-soluble protein abundance amounted to 0.945 ± 0.13.

On to PCBD1 (UniProt P61457), for which the NP40-soluble protein abundance came to 1.03 ± 0.046.

For UniProt P62314, the NP40-soluble protein abundance came out at 1.05 ± 0.072.

ITGA1 (UniProt P56199): the NP40-soluble protein abundance was 1.04 ± 0.15.

Take UniProt P51532 and related entries: the NP40-soluble protein abundance is 1.016 ± 0.0073.

Take UniProt P54687 and related entries: the NP40-soluble protein abundance was 1.01 ± 0.051.

Consider UniProt P51948 and related entries, for which the NP40-soluble protein abundance worked out at 1 ± 0.066.

Regarding UniProt P62318 and related entries, the NP40-soluble protein abundance was found to be 1.11 ± 0.16.

In the case of UniProt P51572 and related entries, the NP40-soluble protein abundance turned out to be 0.89 ± 0.041.

For UniProt P61221, the NP40-soluble protein abundance was found to be 1.03 ± 0.053.

For the target UniProt P62072, the NP40-soluble protein abundance amounted to 0.991 ± 0.067.

ST13 (UniProt P50502): the NP40-soluble protein abundance is 0.848 ± 0.04.

Regarding COG7 (UniProt P83436), the NP40-soluble protein abundance stood at 0.974 ± 0.062.

Take GSTO1 (UniProt P78417): the NP40-soluble protein abundance came to 0.917 ± 0.02.

On to UniProt P60174 and related entries, for which the NP40-soluble protein abundance was found to be 0.843 ± 0.094.

The same assay, now with this note: concentration: 0.5mM.
On to UniProt P61129, for which the NP40-soluble protein abundance came out at 0.976 ± 0.051.

For CTSC (UniProt P53634), the NP40-soluble protein abundance was determined as 1.01 ± 0.03.

Consider UniProt P56381, for which the NP40-soluble protein abundance was 0.92 ± 0.058.

Turning to UniProt P61764 and related entries, the NP40-soluble protein abundance came to 1.05 ± 0.077.

Regarding UniProt P60604, the NP40-soluble protein abundance is 0.982 ± 0.018.

In the case of EIF5 (UniProt P55010), the NP40-soluble protein abundance was found to be 0.97 ± 0.054.

MRPS9 (UniProt P82933): the NP40-soluble protein abundance turned out to be 1.18 ± 0.16.

For the target PPP2CA (UniProt P67775), the NP40-soluble protein abundance worked out at 0.988 ± 0.0016.

MRPS35 (UniProt P82673): the NP40-soluble protein abundance was 1.07 ± 0.2.

With UniProt P50995 and related entries, the NP40-soluble protein abundance stood at 0.876 ± 0.092.

Turning to UniProt P54920 and related entries, the NP40-soluble protein abundance is 0.858 ± 0.05.

On to UniProt P61009, for which the NP40-soluble protein abundance was 0.937 ± 0.067.

Consider UniProt P60953, for which the NP40-soluble protein abundance was found to be 0.935 ± 0.12.

With UniProt P62495, the NP40-soluble protein abundance is 1.02 ± 0.048.

Regarding “UniProt P63092-2|P63092-3|P63092 and related entries”, the NP40-soluble protein abundance was found to be 0.9607 ± 0.0034.

With FOXK1 (UniProt P85037), the NP40-soluble protein abundance worked out at 1.02 ± 0.052.

For the target MARS (UniProt P56192), the NP40-soluble protein abundance was determined as 1.09 ± 0.098.

Consider XIAP (UniProt P98170), for which the NP40-soluble protein abundance stood at 1 ± 0.1.

Take UniProt P62995 and related entries: the NP40-soluble protein abundance amounted to 1.36 ± 0.24.

UniProt P55884 and related entries: the NP40-soluble protein abundance was found to be 1.07 ± 0.056.

For the target UniProt P84095, the NP40-soluble protein abundance was 0.992 ± 0.054.

In the case of NCBP2 (UniProt P52298), the NP40-soluble protein abundance was determined as 0.992 ± 0.041.

Take UniProt P54727 and related entries: the NP40-soluble protein abundance was found to be 0.844 ± 0.059.

Take UniProt P60983 and related entries: the NP40-soluble protein abundance worked out at 0.871 ± 0.062.

For PCBD1 (UniProt P61457), the NP40-soluble protein abundance was 1 ± 0.031.

For the target UniProt P62314, the NP40-soluble protein abundance turned out to be 1.14 ± 0.14.

As for ITGA1 (UniProt P56199), the NP40-soluble protein abundance was found to be 0.944 ± 0.1.

As for UniProt P51532 and related entries, the NP40-soluble protein abundance turned out to be 1.07 ± 0.045.

Take UniProt P54687 and related entries: the NP40-soluble protein abundance came out at 0.994 ± 0.058.

Turning to UniProt P51948 and related entries, the NP40-soluble protein abundance amounted to 1.02 ± 0.035.

In the case of UniProt P62318 and related entries, the NP40-soluble protein abundance worked out at 1.04 ± 0.016.

Take UniProt P51572 and related entries: the NP40-soluble protein abundance came out at 0.914 ± 0.071.

On to UniProt P61221, for which the NP40-soluble protein abundance turned out to be 1.06 ± 0.075.

For UniProt P62072, the NP40-soluble protein abundance came to 0.963 ± 0.1.

As for ST13 (UniProt P50502), the NP40-soluble protein abundance came to 0.785 ± 0.09.

On to COG7 (UniProt P83436), for which the NP40-soluble protein abundance is 0.969 ± 0.022.

In the case of GSTO1 (UniProt P78417), the NP40-soluble protein abundance was determined as 0.936 ± 0.018.

Regarding UniProt P60174 and related entries, the NP40-soluble protein abundance stood at 0.884 ± 0.1.

The values above are taken from the supplement of paper PMC6411743.
